Data on one compound can be found in patent US8598212B2, “Therapeutic agent and preventative agent for alzheimer's disease” (Toray Industries, Inc., priority 2010, dated 2013).

This experiment has as its system Alzheimer's disease model rats. Briefly: Morris water maze test in Alzheimer's disease model rats (basal ganglia destroyed with ibotenic acid). The format is in vivo, Wistar rats. As to conditions: 0.5 mg/kg oral 60 minutes before first trial on Day 10 to Day 12 after destruction treatment. The protocol:
In the experiments, 10 male Wistar rats of 7 weeks old were used for one experimental group. Rats were anesthetized and fixed in a brain stereotaxic apparatus. The skull of each rat was exposed, and small windows were made at two sites: 1.4 mm posterior to the bregma and 2.8 mm left and right of the midline. A catheter was inserted from the exposed dura mater into the basal ganglia located at 7.6 mm in a ventral direction, and ibotenic acid solution prepared by dissolving 5 μg ibotenic acid in 0.5 μL phosphate buffer (50 mM) was injected over 5 minutes to destroy the basal ganglia, thereby preparing Alzheimer's disease model rats. Rats of sham operation group received injection of 0.5 μL phosphate buffer (50 mM) instead of ibotenic acid solution. […]
Learning and memory function of the subject rats were evaluated by the Morris water maze test. […] The swimming time until a subject rat placed at the arbitrary start position in the round pool reached the platform (hereinafter “Escape latency”) was measured by recording the movement locus of the subject rat with a video image behavioral analysis system. […]

Where a name gives a salt, the structure may show the parent alone.

Regarding `COc1cc2c(cc1OC)C(=O)C(CC1CCN(Cc3ccccc3)CC1)C2` (stereo not shown) [donepezil hydrochloric acid salt, reference compound], the “Escape latency in Morris water maze” value was “shortened to the same level as of the sham operation group rats”.
